# Measurements reported in publication PMC5636168.
# By UniProt entry, the sequences of proteins in these tests, tags left out. Where a name states a change or a piece, a line headed by the entry shows the natural chain unless it says otherwise. Residues count along the entry.
# UniProt P21238, residues 47-586: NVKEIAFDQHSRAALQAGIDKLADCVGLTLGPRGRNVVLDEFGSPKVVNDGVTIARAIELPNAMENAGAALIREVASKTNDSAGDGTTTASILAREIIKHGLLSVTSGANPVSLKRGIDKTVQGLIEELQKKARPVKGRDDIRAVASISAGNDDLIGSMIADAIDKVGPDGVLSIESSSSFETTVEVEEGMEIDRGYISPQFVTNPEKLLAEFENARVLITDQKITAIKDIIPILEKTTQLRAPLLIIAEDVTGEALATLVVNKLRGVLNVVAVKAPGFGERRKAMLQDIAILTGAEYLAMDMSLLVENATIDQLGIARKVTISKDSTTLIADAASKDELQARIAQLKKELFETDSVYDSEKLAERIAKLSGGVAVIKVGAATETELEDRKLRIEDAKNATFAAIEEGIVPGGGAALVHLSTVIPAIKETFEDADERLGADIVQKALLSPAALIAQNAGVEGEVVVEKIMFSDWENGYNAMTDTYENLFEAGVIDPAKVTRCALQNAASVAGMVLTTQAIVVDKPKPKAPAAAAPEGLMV
# UniProt Q56XV8, residues 33-575: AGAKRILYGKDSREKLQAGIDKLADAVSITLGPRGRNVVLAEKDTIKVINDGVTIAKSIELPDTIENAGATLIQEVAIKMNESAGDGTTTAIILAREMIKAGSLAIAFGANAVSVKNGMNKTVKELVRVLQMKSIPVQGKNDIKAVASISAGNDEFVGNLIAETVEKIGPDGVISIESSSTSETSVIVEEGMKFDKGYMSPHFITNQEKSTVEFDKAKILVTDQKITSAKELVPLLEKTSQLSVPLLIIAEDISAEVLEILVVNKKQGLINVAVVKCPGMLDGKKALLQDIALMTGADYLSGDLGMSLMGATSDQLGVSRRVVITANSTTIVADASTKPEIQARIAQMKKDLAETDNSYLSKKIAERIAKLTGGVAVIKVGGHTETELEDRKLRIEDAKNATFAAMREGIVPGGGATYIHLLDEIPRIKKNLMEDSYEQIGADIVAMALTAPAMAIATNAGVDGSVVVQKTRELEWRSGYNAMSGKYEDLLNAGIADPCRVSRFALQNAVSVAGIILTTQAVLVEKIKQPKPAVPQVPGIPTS
# UniProt P21240: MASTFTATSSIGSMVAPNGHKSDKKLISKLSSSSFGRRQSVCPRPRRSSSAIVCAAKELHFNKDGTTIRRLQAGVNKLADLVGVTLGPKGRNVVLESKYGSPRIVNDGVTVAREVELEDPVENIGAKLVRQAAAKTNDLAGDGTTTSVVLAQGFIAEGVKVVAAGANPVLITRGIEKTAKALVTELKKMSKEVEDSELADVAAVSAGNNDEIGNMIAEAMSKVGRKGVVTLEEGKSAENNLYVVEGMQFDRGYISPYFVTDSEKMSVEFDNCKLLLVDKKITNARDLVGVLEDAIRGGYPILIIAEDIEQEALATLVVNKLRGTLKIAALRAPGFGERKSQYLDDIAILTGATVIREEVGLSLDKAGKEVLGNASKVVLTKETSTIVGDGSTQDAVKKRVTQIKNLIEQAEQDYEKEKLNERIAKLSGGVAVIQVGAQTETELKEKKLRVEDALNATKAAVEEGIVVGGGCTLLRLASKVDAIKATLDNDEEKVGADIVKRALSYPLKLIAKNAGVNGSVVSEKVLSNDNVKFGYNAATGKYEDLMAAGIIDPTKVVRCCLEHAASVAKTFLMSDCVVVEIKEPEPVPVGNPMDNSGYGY
# UniProt Q9LJE4: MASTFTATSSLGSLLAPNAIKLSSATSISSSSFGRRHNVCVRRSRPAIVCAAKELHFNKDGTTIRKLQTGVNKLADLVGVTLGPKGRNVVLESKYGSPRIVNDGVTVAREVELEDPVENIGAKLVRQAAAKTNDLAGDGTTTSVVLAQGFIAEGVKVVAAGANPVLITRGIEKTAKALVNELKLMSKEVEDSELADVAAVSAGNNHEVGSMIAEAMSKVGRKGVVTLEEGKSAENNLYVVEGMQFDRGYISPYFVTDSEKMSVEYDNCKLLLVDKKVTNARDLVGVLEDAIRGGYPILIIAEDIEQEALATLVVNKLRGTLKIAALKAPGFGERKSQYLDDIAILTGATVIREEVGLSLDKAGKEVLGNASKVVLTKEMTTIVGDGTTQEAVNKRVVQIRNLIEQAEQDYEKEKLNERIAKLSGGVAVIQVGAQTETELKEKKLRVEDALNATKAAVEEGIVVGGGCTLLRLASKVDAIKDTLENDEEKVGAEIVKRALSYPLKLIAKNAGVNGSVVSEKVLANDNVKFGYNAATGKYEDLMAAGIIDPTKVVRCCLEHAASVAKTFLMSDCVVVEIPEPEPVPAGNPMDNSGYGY
# UniProt C0Z361: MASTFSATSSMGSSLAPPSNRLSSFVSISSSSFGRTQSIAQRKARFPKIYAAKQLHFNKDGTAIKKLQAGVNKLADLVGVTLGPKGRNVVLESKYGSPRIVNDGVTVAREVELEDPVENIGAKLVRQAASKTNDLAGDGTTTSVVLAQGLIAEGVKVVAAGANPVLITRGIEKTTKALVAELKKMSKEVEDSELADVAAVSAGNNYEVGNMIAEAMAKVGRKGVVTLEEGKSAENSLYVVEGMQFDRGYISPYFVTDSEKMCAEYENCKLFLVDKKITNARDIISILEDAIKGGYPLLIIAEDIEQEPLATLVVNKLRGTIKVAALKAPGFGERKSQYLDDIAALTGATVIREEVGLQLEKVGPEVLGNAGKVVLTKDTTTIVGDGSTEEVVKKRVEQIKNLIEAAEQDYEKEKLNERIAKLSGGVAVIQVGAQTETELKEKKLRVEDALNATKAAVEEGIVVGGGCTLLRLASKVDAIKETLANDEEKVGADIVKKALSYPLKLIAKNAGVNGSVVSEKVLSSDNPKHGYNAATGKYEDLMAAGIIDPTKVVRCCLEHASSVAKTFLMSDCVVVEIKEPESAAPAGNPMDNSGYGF
# Assays:
# [1] = molecular target: Recombinant CPNA1 (without the transit peptide) (Arabidopsis thaliana) (UniProt P21238); test: SEC; reconstitution: 15 μM Cpn60α, 15 μM Cpn60β and 10 μM Cpn20 in 50 mM Tris-HCl pH 8.0, 0.3 M NaCl, 10 mM MgCl2, 16 mM KCl, 2 mM DTT, 5 mM ATP, 2 h at 30°C; supernatant on an Enrich Size Exclusion Column 650, reconstituted Cpn60s collected; both purified
# [2] = molecular target: Recombinant CPNA2 (without the transit peptide) (Arabidopsis thaliana) (UniProt Q56XV8); test: as above
substance,measurement,setting,value
Recombinant CPNB1 (without the transit peptide) (from UniProt P21240),binding,[1],binds
same,binding,[2],binds
Recombinant CPNB2 (without the transit peptide) (from UniProt Q9LJE4),binding,[1],binds
same,binding,[2],binds
Recombinant CPNB3 (without the transit peptide) (from UniProt C0Z361),binding,[2],binds

# Results are given in words; binding and its absence hold for the method and conditions named. A result given as binding can be weak or reduced; the word gives no strength.
